SMILES strings stand for the structures. Some of the results follow. Entries with a potency or affinity are not part of this list. Entries without a call are filed as inconclusive in the source.

The nature of the first test: Drosophila SCA1 whole organism dose response for polyglutamine toxicity reduction (AID 1595). The settings on record: Drosophila SCA1 polyglutamine model, at 1 µM, stronger effect = higher value.
In turn, `CCN(CC)C(=O)N1CCN(C)CC1` registered a suppression of toxicity of 1.43.

Consider `Cc1onc(-c2ccccc2)c1C(=O)NC1C(=O)N2[C@@H]1SC(C)(C)[C@@H]2C(=O)O` (stereo partly specified), for which the suppression of toxicity was determined as 1.43.

Consider `Cc1cccc(N(C)C(=S)Oc2ccc3ccccc3c2)c1`, for which the suppression of toxicity stood at 4.29.

With `O=C(O)c1ccccc1C(=O)Nc1ccc(S(=O)(=O)Nc2nccs2)cc1`, the suppression of toxicity came to 0.

In turn, `CN(C)CC/C=C1/c2ccccc2COc2ccccc21` registered a suppression of toxicity of 1.43.

Take `CC(=O)OCC(=O)[C@@]1(O)CC[C@H]2C3CCC4=CC(=O)CCC4(C)[C@@]3(F)[C@@H](O)CC21C` (stereo partly specified): the suppression of toxicity was found to be 0.

With `COc1ccc([C@@H]2CC(=O)c3c(O)cc(O)cc3O2)cc1O`, the suppression of toxicity stood at 0.

Compound `O=c1[nH]cc(F)c(=O)[nH]1` displayed a suppression of toxicity of 2.85.

Compound `OC(CCN1CCCCC1)(c1ccccc1)C1CCCCC1` (stereo unspecified) displayed a suppression of toxicity of 4.29.

Compound `CCCCCC(=O)O[C@]1(C(C)=O)CCC2C3CCC4=CC(=O)CC[C@]4(C)C3CC[C@@]21C` (stereo partly specified) came in with a suppression of toxicity of 7.14.

Take `CC(=O)OCC(COC(C)=O)OC(C)=O`: the suppression of toxicity came out at 17.1.

Regarding `CCn1cc(C(=O)O)c(=O)c2cc(F)c(N3CCNCC3)cc21`, the suppression of toxicity turned out to be 2.86.

With `CC(C)C[C@@H](NC(=O)OCC1c2ccccc2-c2ccccc21)C(=O)O`, the suppression of toxicity was determined as 0.

As to `CC(=O)CC(c1ccccc1)c1c(O)c2ccccc2oc1=O` (stereo unspecified), the suppression of toxicity is 0.

As for `CO[C@H]1/C=C/O[C@@]2(C)Oc3c(C)c(O)c4c(O)c(c(C=NN5CCN(C)CC5)c(O)c4c3C2=O)NC(=O)/C(C)=C\C=C\C(C)[C@H](O)[C@@H](C)[C@@H](O)[C@@H](C)[C@@H](OC(C)=O)[C@@H]1C` (stereo partly specified), the suppression of toxicity stood at 0.

With `N[C@@H]1[C@@H](O)[C@H](O)[C@@H](CO)O[C@H]1O`, the suppression of toxicity is 7.14.

Compound `CC(=O)Oc1ccc2c(c1)CCC1C2CC[C@@]2(C)C1CC[C@@H]2OC(C)=O` (stereo partly specified) registered a suppression of toxicity of 4.29.

`CCn1cc(C(=O)O)c(=O)c2cc(F)c(N3CCNC(C)C3)c(F)c21` (stereo unspecified) showed a suppression of toxicity of 7.14.

For the compound `Cn1nnnc1SCC1=C(C(=O)O)N2C(=O)C(NC(=O)C(O)c3ccccc3)C2SC1` (stereo unspecified), the suppression of toxicity stood at 12.9.

Take `OCc1ccccc1O`: the suppression of toxicity was found to be 10.

`CC(=O)Oc1ccc(C(c2ccc(OC(C)=O)cc2)c2ccccn2)cc1` gave a suppression of toxicity of 0.

A short description of another test: PubChem AID 1597. To be noted: Drosophila SCA1 polyglutamine model, at 1 µM, stronger effect = higher value.
In the case of `Cc1cc(C2CCCCC2)n(O)c(=O)c1`, the suppression of toxicity worked out at 3.58.

`c1coc(CNc2ncnc3nc[nH]c23)c1` returned a suppression of toxicity of 3.57.

Consider `CC(=O)OCC(=O)[C@@]1(O)CCC2C3CCC4=CC(=O)CC[C@]4(C)C3C(=O)C[C@@]21C` (stereo partly specified), for which the suppression of toxicity stood at 4.29.

`CC(C)[C@@H](C)/C=C/[C@@H](C)C1CC[C@H]2/C(=C/C=C3\C[C@@H](O)CC[C@@H]3C)CCC[C@]12C` (stereo partly specified) displayed a suppression of toxicity of 0.715.

The compound `NS(=O)(=O)c1cc2c(cc1Cl)NC(CSCc1ccccc1)=NS2(=O)=O` had a suppression of toxicity of 3.58.

In turn, `COc1cc(C)c2c(=O)cc(-c3ccccc3)oc2c1` returned a suppression of toxicity of 5.71.

For the compound `CSCCC(NC=O)C(=O)NC(Cc1ccccc1)C(=O)O` (stereo unspecified), the suppression of toxicity worked out at 10.

In turn, `Nc1ccn(C2O[C@H](CO)[C@@H](O)[C@H]2O)c(=O)n1` (stereo partly specified) registered a suppression of toxicity of 17.1.

The compound `CCN1CCCC1CNC(=O)c1cc(S(N)(=O)=O)ccc1OC` (stereo unspecified) had a suppression of toxicity of 10.

`CC(C)NCC(O)c1cc(O)cc(O)c1` (stereo unspecified) came in with a suppression of toxicity of 11.4.

`COc1c2occc2cc2ccc(=O)oc12`: the suppression of toxicity came to 4.29.

In turn, `CN1CCCN=C1COC(=O)C(O)(c1ccccc1)C1CCCCC1` (stereo unspecified) came in with a suppression of toxicity of 0.715.

In the case of `CCN1CCN(C(=O)NC(C(=O)NC2C(=O)N3C(C(=O)O)=C(CSc4nnnn4C)CSC23)c2ccc(O)cc2)C(=O)C1=O` (stereo unspecified), the suppression of toxicity is 6.42.

`O=C(OCC(O)CO)c1ccccc1Nc1ccnc2cc(Cl)ccc12` (stereo unspecified) had a suppression of toxicity of 4.29.

On to `O=C(O)P(=O)(O)O`, for which the suppression of toxicity worked out at 1.43.

Take `CCCCCCCCCCCCCCCCCC(=O)OC(CC(=O)O)C[N+](C)(C)C` (stereo unspecified): the suppression of toxicity was 5.

As for `COc1ccc2cc3[n+](cc2c1OC)CCc1cc2c(cc1-3)OCO2`, the suppression of toxicity amounted to 6.42.

`COc1ccc2[nH]cc(CCNC(C)=O)c2c1` came in with a suppression of toxicity of 4.29.

`Cc1cc(/C=C/c2ccc3cc(N(C)C)ccc3[n+]2C)c(C)n1-c1ccccc1` had a suppression of toxicity of 5.71.

In turn, `CCN(CC)C(=O)N1CCN(C)CC1` showed a suppression of toxicity of 2.15.

`Cc1onc(-c2ccccc2)c1C(=O)NC1C(=O)N2[C@@H]1SC(C)(C)[C@@H]2C(=O)O` (stereo partly specified): the suppression of toxicity is 0.715.

`Cc1cccc(N(C)C(=S)Oc2ccc3ccccc3c2)c1` had a suppression of toxicity of 5.

As for `O=C(O)c1ccccc1C(=O)Nc1ccc(S(=O)(=O)Nc2nccs2)cc1`, the suppression of toxicity came out at 0.

`CN(C)CC/C=C1/c2ccccc2COc2ccccc21` displayed a suppression of toxicity of 6.43.

`CC(=O)OCC(=O)[C@@]1(O)CC[C@H]2C3CCC4=CC(=O)CCC4(C)[C@@]3(F)[C@@H](O)CC21C` (stereo partly specified) came in with a suppression of toxicity of 2.86.

With `COc1ccc([C@@H]2CC(=O)c3c(O)cc(O)cc3O2)cc1O`, the suppression of toxicity was 0.

For `O=c1[nH]cc(F)c(=O)[nH]1`, the suppression of toxicity amounted to 5.71.

For the compound `OC(CCN1CCCCC1)(c1ccccc1)C1CCCCC1` (stereo unspecified), the suppression of toxicity came to 13.6.

`CCCCCC(=O)O[C@]1(C(C)=O)CCC2C3CCC4=CC(=O)CC[C@]4(C)C3CC[C@@]21C` (stereo partly specified) registered a suppression of toxicity of 10.7.

Turning to `CC(=O)OCC(COC(C)=O)OC(C)=O`, the suppression of toxicity is 14.3.

For the compound `CCn1cc(C(=O)O)c(=O)c2cc(F)c(N3CCNCC3)cc21`, the suppression of toxicity came out at 4.29.

Turning to `CC(C)C[C@@H](NC(=O)OCC1c2ccccc2-c2ccccc21)C(=O)O`, the suppression of toxicity is 0.715.

In turn, `CC(=O)CC(c1ccccc1)c1c(O)c2ccccc2oc1=O` (stereo unspecified) gave a suppression of toxicity of 0.

As for `CO[C@H]1/C=C/O[C@@]2(C)Oc3c(C)c(O)c4c(O)c(c(C=NN5CCN(C)CC5)c(O)c4c3C2=O)NC(=O)/C(C)=C\C=C\C(C)[C@H](O)[C@@H](C)[C@@H](O)[C@@H](C)[C@@H](OC(C)=O)[C@@H]1C` (stereo partly specified), the suppression of toxicity is 0.715.

Compound `N[C@@H]1[C@@H](O)[C@H](O)[C@@H](CO)O[C@H]1O` came in with a suppression of toxicity of 7.14.

In the case of `CC(=O)Oc1ccc2c(c1)CCC1C2CC[C@@]2(C)C1CC[C@@H]2OC(C)=O` (stereo partly specified), the suppression of toxicity came to 4.29.

The compound `CCn1cc(C(=O)O)c(=O)c2cc(F)c(N3CCNC(C)C3)c(F)c21` (stereo unspecified) had a suppression of toxicity of 2.15.

In turn, `Cn1nnnc1SCC1=C(C(=O)O)N2C(=O)C(NC(=O)C(O)c3ccccc3)C2SC1` (stereo unspecified) yielded a suppression of toxicity of 11.4.

As to `OCc1ccccc1O`, the suppression of toxicity came out at 10.7.

As to `CC(=O)Oc1ccc(C(c2ccc(OC(C)=O)cc2)c2ccccn2)cc1`, the suppression of toxicity was found to be 7.14.

The values are drawn from PubChem BioAssay.
